No constants are given. Whether binding was seen depends on the method and setting. In cells and extracts the contact can be indirect. Some entries that bind do so weakly or less than the wild type.
Biological target: T1, menin expressed in and purified from E. coli (Homo sapiens (Human)) (UniProt O00255)
T1 sequence: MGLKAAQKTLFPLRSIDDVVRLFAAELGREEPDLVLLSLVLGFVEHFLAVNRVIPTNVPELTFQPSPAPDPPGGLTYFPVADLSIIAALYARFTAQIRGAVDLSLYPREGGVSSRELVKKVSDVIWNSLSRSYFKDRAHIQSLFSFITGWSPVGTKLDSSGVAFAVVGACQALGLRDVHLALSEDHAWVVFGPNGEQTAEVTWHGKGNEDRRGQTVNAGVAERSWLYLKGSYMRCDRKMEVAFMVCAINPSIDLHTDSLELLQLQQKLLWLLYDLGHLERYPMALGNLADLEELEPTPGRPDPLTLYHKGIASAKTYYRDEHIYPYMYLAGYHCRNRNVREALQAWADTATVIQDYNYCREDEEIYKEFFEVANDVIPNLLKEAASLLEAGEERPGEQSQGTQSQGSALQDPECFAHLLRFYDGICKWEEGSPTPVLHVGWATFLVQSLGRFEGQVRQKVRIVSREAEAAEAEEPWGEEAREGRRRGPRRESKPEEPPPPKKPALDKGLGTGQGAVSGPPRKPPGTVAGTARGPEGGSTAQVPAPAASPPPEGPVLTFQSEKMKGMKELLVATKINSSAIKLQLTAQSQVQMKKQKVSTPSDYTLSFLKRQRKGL
Test: pull-down on streptavidin-agarose beads loaded with biotinylated peptide, anti-menin Western blot

| Binder | binding |
| --- | --- |
| MAHSCRWRFP (biotinylated (position not given)) [biotinylated synthetic peptide comprising … (SEQ ID No. 6)] | binds |
| MAHSCRWRFPGSGSCRWRFP (biotinylated (position not given)) [biotinylated synthetic peptide … (SEQ ID No. 7)] | binds |
